Publication PMC7321161, “The Intriguing Effects of Substituents in the N-Phenethyl Moiety of Norhydromorphone: A Bifunctional Opioid from a Set of “Tail Wags Dog” Experiments” (Molecules, 2020)
Entries after “also recorded” stand apart in the source; their conditions may differ.

System: squirrel monkeys
Assay: Squirrel monkey ventilation (whole-body plethysmograph, air or 5% CO2)
Format: in vivo, Saimiri sciureus
Protocol: Gas (either air or a 5% CO2 in air mixture) was introduced to and extracted from the chamber at a constant flow rate of 5 L/min. Experimental sessions consisted of 4–6 consecutive 30 min cycles, each comprising a 15 min exposure to air followed by a 15 min exposure to 5% CO2. Drug effects were determined using cumulative dosing procedures, and injections were administered following each exposure to 5% CO2. Respiratory rate and tidal volume (mL/breath) were recorded over 1 min periods and were multiplied to provide minute volumes. Data from the last three minutes of each exposure to air or CO2 were averaged and used for analysis of drug effects on ventilation.

CN1CC[C@]23c4c5ccc(O)c4O[C@H]2[C@@H](O)C=C[C@H]3[C@H]1C5 [Morphine, reference compound]
Effect on ventilation (minute volume) during exposure to 5% CO2 mixed in air (hypercapnia): significantly reduced minute volume in 5% CO2; also recorded: significantly decreased ventilation
Effect on respiratory rate or ventilation (minute volume) during exposure to air alone (2i 0.003–0.1 mg/kg, morphine 0.03–3.0 mg/kg): neither 2i (0.003–0.1 mg/kg) nor morphine (0.03–3.0 mg/kg) had effects
